Reference: patent US20260191199A1, “AMIDE COMPOUND AND HARMFUL ARTHROPOD CONTROL COMPOSITION CONTAINING SAME” (SUMITOMO CHEMICAL COMPANY, LIMITED, priority 2022, published 2026)
Some results were stated once for a whole list of compounds, not compound by compound. At least one structure is not confirmed: it was looked up by name or label, or the drawing left a doubt.

How the values were obtained:
[1] = test system: cotton aphids (Aphis gossypii); test: Test method 13: spray test on cotton aphids on cucumber seedlings (Formulation Example 5); format: in vivo; details: Test Example 13-1; 200 ppm; sprayed 10 mL/seedling; after 5 days; 25° C.
[2] = test system: cotton aphids (Aphis gossypii); test: Test method 1: spray test on cotton aphids on cucumber seedlings (Formulation Example 1); format: in vivo; details: Test Example 1-1; 500 ppm; sprayed 10 mL/seedling; after 5 days; 25° C.

In the case of `Cc1cc(C)c2cc(Cc3cc(C(=O)NCC4(N(C)C)CCCC4)no3)oc2c1` [compound 50], the controlling value [1] is reported as ≥ 90% and the controlling value [2] is reported as ≥ 90%.
In the case of `Cc1cc2cc(Cc3cc(C(=O)NCC(C)(C)CN(C)C)no3)oc2cc1C` [compound 85], the controlling value [1] is reported as ≥ 90% and the controlling value [2] is reported as ≥ 90%.
